Source: article PMC3240744
Results are given in words; binding and its absence hold for the method and conditions named. Some entries that bind do so weakly or less than the wild type.

Biological target: T1, Arl8a, yeast two-hybrid bait (UniProt Q96BM9)
T1 sequence: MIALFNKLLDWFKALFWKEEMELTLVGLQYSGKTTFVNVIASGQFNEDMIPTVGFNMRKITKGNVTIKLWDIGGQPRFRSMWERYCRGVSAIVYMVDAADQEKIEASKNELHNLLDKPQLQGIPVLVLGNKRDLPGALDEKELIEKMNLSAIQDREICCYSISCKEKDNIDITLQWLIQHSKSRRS
Experiment: two-hybrid; Arl8 baits in pDEST32 in strain PJ69-4a, SKIP preys in pDEST22 in strain PJ69-4alpha; mated, grown on selective medium at 30°C for 3 days

- binding: binds
B1: SKIP, yeast two-hybrid prey (protein, UniProt Q8IWE5 1-1019)
chain: MEPGEVKDRILENISLSVKKLQSYFAACEDEIPAIRNHDKVLQRLCEHLDHALLYGLQDLSSGYWVLVVHFTRREAIKQIEVLQHVATNLGRSRAWLYLALNENSLESYLRLFQENLGLLHKYYVKNALVCSHDHLTLFLTLVSGLEFIRFELDLDAPYLDLAPYMPDYYKPQYLLDFEDRLPSSVHGSDSLSLNSFNSVTSTNLEWDDSAIAPSSEDYDFGDVFPAVPSVPSTDWEDGDLTDTVSGPRSTASDLTSSKASTRSPTQRQNPFNEEPAETVSSSDTTPVHTTSQEKEEAQALDPPDACTELEVIRVTKKKKIGKKKKSRSDEEASPLHPACSQKKCAKQGDGDSRNGSPSLGRDSPDTMLASPQEEGEGPSSTTESSERSEPGLLIPEMKDTSMERLGQPLSKVIDQLNGQLDPSTWCSRAEPPDQSFRTGSPGDAPERPPLCDFSEGLSAPMDFYRFTVESPSTVTSGGGHHDPAGLGQPLHVPSSPEAAGQEEEGGGGEGQTPRPLEDTTREAQELEAQLSLVREGPVSEPEPGTQEVLCQLKRDQPSPCLSSAEDSGVDEGQGSPSEMVHSSEFRVDNNHLLLLMIHVFRENEEQLFKMIRMSTGHMEGNLQLLYVLLTDCYVYLLRKGATEKPYLVEEAVSYNELDYVSVGLDQQTVKLVCTNRRKQFLLDTADVALAEFFLASLKSAMIKGCREPPYPSILTDATMEKLALAKFVAQESKCEASAVTVRFYGLVHWEDPTDESLGPTPCHCSPPEGTITKEGMLHYKAGTSYLGKEHWKTCFVVLSNGILYQYPDRTDVIPLLSVNMGGEQCGGCRRANTTDRPHAFQVILSDRPCLELSAESEAEMAEWMQHLCQAVSKGVIPQGVAPSPCIPCCLVLTDDRLFTCHEDCQTSFFRSLGTAKLGDISAVSTEPGKEYCVLEFSQDSQQLLPPWVIYLSCTSELDRLLSALNSGWKTIYQVDLPHTAIQEASNKKKFEDALSLIHSAWQRSDSLCRGRASRDPWC
